Experimental data taken from the supplement of paper PMC8256030.
Where “and” joins values, the source holds several entries; their conditions need not be identical. Equal values may be shown once. Where a name gives a salt, the structure may show the parent alone. The list shows a part of the results. This data set is noisy: repeats of one test often differ as much as different tests do.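 HEK293T cells were given each compound shortly before transfection with a reporter in which red mCherry is followed by the SARS-CoV-2 frameshift element and then GFP in the −1 frame, so GFP appears only after frameshifting.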

Tested on: HEK293T
Assay: percent viability (nuclei count) relative to control; higher = more viable cells
Conditions: 10 µM; 24 h

| Structure (SMILES) | percent viability |
| --- | --- |
| NC(=O)C1=C(O)[C@@]2(O)C(=O)C3=C(O)c4c(O)cccc4C[C@H]3C[C@H]2CC1=O [incyclinide] | 20.7% |
| COc1ccc(NS(=O)(=O)c2ccc(N)cc2)nn1 [sulfamethoxypyridazine] | 375% |
| NS(=O)(=O)c1ccc(NC(=O)OCCO)cc1 [sulocarbilate] | 118% |
| CC1(C)S[C@@H]2[C@H](NC(=O)[C@H](NC(=O)N3CCNC3=O)c3ccccc3)C(=O)N2[C@H]1C(=O)O [Azlin] | 204% and 213% |
| C#CCN(C)CCCOc1ccc(Cl)cc1Cl [clorgiline] | 273% |
| Cc1c(C(=O)Nc2ccc(N3C[C@@H](C)O[C@@H](C)C3)nc2)cccc1-c1ccc(OC(F)(F)F)cc1 [Sonidegib] | 66.6% |
| CC(C)C[C@H](NC(=O)[C@@H](O)[C@H](N)Cc1ccccc1)C(=O)O [ubenimex] | 229% |
| CC(=O)Nc1ccc(S(=O)(=O)Nc2ccc([N+](=O)[O-])cc2)cc1 [sulfanitran] | 171% |
| CN1CCCN(C(c2ccccc2)c2ccc(Cl)cc2)CC1 (centres undefined) [homochlorcyclizine] | 267% |
| N[C@@H](CSCCCO)C(=O)O [fudosteine] | 233% |
| Clc1ccc2nsnc2c1NC1=NCCN1 [Tizanidine·HCl] | 351% |
| CN(C)CC(c1ccc(O)cc1)C1(O)CCCCC1 (centres undefined) [desvenlafaxine] | 152% |
| O=c1[nH]c2ccccc2n1CCCN1CCN(C(c2ccccc2)c2ccccc2)CC1 [oxatomide] | 265% |
| CC(=O)Oc1c(C)c(C)c2c(c1C)CCC(C)(CCC[C@H](C)CCC[C@H](C)CCCC(C)C)O2 (some centres undefined) | 290% |

Single entries from the results shown.
Under percent viability, C#CCN(C)CCCOc1ccc(Cl)cc1Cl [clorgiline] is entered as 273%
Under percent viability, Clc1ccc2nsnc2c1NC1=NCCN1 [Tizanidine·HCl] is entered as 351%
